Paper PMC4605302

Amino acid sequences for entries named in this document (tags omitted). A change or cut given only in a name is not applied to a line headed by its entry.
UniProt P49956: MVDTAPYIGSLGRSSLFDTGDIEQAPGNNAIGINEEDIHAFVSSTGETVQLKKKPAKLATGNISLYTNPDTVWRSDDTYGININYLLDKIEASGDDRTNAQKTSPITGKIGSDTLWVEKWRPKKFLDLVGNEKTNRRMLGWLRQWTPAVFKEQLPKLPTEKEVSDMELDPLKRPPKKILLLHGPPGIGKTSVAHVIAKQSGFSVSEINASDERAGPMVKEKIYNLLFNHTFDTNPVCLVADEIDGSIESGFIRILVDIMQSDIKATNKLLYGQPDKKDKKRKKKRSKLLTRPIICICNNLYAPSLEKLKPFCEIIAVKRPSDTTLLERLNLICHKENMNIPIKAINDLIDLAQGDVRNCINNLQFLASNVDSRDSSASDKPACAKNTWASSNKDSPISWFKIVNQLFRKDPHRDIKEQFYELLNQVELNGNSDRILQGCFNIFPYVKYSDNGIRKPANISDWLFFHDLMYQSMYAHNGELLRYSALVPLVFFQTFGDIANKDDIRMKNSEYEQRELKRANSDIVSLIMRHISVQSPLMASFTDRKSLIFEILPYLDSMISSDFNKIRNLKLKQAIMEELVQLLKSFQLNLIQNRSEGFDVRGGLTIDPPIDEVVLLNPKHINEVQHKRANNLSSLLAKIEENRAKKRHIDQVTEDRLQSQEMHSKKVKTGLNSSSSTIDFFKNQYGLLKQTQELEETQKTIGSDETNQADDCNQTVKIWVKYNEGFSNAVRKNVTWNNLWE

Target: T1, Dcc1 (two-hybrid fusion) (S. cerevisiae) (UniProt P25559)
T1 sequence: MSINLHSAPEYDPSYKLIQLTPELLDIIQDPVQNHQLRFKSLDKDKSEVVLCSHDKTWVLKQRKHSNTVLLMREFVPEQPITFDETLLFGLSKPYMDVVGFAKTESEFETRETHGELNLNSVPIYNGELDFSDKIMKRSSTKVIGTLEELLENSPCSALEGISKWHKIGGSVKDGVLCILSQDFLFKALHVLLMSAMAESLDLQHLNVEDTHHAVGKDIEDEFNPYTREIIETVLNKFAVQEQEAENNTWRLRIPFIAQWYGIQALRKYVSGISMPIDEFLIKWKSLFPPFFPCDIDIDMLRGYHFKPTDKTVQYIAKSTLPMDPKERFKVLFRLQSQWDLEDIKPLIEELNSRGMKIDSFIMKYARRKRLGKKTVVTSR
Test: two-hybrid; Gal4-based, pGADT7 and pGBKT7 derivatives in the wild type strain PJ69–4A; growth on SC medium lacking tryptophan, leucine and histidine

Row | Substance | binding
1 | Ctf18 E741A (two-hybrid fusion) (from UniProt P49956) | binds
2 | Ctf18 A729T (two-hybrid fusion) (from UniProt P49956) | binds
3 | Ctf18 W740A (two-hybrid fusion) (from UniProt P49956) | binds
4 | Ctf18 A729G (two-hybrid fusion) (from UniProt P49956) | binds
5 | Ctf18 W736A (two-hybrid fusion) (from UniProt P49956) | binds

Results are given in words; binding and its absence hold for the method and conditions named. A result given as binding can be weak or reduced; the word gives no strength. Where a sequence is shown, tags or fusion partners need not be part of it.
